In patent US7256042B2, “Process for making hepatocytes from pluripotent stem cells” (Geron Corporation, priority 2000, dated 2007):

Tested on: hES cell derived embryoid bodies
Test: Comparison of potential hepatocyte differentiation agents; as to Induction of hepatocyte phenotype: key: +: Causes hepatocyte differentiation and selective elimination of other cell types; −: No inductive effect; ±: Mild inductive effect; may allow growth or survival of other cell types
Assay type: cell-based, human
Procedure: The effect of sodium butyrate was compared with other potential hepatocyte differentiation agents in a similar protocol. Embryoid bodies were cultured in suspension for 4 days, and then replated on plates coated with collagenase 1. The cells were then cultured in the presence of each compound for 6 days.

Induction of hepatocyte phenotype (EBs 4 days in suspension, replated on plates coated with collagenase 1, cultured with each compound for 6 days, analogs at 5 mM): ±
Compound: CC(C)CC(=O)O [Isovaleric acid]
Effect on hepatocyte differentiation (in words) (concentration of 5 mM, 6 days): effective in causing hepatocyte differentiation
